# Percent effect of library compounds

Sequences of proteins named here, by UniProt entry; tags and fusion partners are left off. Residues count along the entry.
UniProt A4I591, 1-473: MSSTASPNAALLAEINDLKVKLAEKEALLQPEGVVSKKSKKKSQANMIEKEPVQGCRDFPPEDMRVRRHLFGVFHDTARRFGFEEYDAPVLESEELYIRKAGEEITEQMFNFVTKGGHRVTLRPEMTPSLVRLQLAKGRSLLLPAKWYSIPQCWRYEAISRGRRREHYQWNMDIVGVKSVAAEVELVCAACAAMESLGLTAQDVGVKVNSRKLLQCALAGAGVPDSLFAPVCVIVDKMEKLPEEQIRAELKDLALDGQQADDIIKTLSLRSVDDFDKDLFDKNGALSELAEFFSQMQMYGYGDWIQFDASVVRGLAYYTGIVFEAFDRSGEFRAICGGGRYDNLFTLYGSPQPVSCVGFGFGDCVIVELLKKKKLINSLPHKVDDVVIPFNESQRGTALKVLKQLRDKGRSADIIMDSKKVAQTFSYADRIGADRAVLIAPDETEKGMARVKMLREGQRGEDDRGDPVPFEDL
UniProt P9WPC5, whole entry: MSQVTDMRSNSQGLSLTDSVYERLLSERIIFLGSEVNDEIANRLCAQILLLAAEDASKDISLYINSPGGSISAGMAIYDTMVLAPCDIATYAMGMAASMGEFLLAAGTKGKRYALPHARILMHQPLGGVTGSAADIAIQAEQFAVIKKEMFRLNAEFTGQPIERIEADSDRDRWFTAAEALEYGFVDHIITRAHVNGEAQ
UniProt P9WPC3, whole entry partner: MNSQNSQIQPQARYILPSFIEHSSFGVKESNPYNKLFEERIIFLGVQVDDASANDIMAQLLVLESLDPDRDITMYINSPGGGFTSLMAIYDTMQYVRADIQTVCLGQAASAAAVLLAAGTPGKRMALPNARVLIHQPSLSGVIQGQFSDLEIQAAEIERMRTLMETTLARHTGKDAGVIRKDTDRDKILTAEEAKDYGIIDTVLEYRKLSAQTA

LiHisRS: 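Histidine-tRNA ligase, Leishmania infantum (UniProt A4I591). Enzyme assay of histidyl-tRNA synthetase; the read-out is not stated. Compounds at 30 µM. The record gives no direction; compounds that gave an IC50 in retests scored well above the rest, so higher reads as stronger inhibition. The assay is labelled LdHisRS but filed under L. infantum. Size under these conditions: about 69,000 compounds, about 410 of them at 50% or above in at least one test.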
Toxoplasma: 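Assay of Toxoplasma gondii numbers, read through their beta-galactosidase reporter with a colour substrate. Concentration: 10 µM. Higher reads as fewer parasites (inferred from which compounds were picked for retests). Size under these conditions: about 67,000 compounds, about 260 of them at 50% or above in at least one test.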
ClpP1P2: 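Protease assay of ClpP1P2, read by the AMC dye that it sets free. Target: ClpP1P2, Mycobacterium tuberculosis (UniProt P9WPC5 and UniProt P9WPC3). Concentration: 50 µM. Higher reads as stronger inhibition, judged from the few compounds that gave an IC50. Most other retested compounds had strongly negative values. Of about 69,000 compounds tested this way, about 10 (0.015%) reached 50% or more in at least one test.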
T. brucei: 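Whole-parasite assay of Trypanosoma brucei over 72 hours; the read-out is not stated. Concentration: 30 µM. The record gives no direction; compounds that gave an IC50 in retests scored well above the rest, so higher reads as stronger inhibition. Values scatter widely below zero; nearly all retest evidence comes from the higher of the two concentrations used. Size under these conditions: about 64,000 compounds, about 940 of them at 50% or above in at least one test.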
Leishmania in macrophages: 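Cell assay of Leishmania donovani living inside macrophages; the read-out is not stated. Compounds at 30 µM. Higher reads as stronger inhibition (inferred: compounds with an IC50 in retests scored well above the rest). Size under these conditions: about 69,000 compounds, about 1,000 of them at 50% or above in at least one test.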

The filed quantity is “Percent Effect” (%).
The controls that fix the scale are not given in the record; negative values are as filed.
This is an unselected part of the compounds tested.
Two or more numbers in one place are separate tests of the same structure; such repeats can differ widely.
A dash means the value is not listed here; it may have been measured.

SMILES,LiHisRS,Toxoplasma,ClpP1P2,T. brucei,Leishmania in macrophages
Cc1cc(NCc2cc3n(n2)CCCN(C(=O)N(C)C)C3)ncn1,7.619%,-7.169%,-7.225%,-5.462%,-28.03%
COCCN1CCOCC12CCN(C(=O)c1ccoc1)CC2.O=C(O)C(F)(F)F,-,-9.706%,-,28.67%,8.798%
CN1C(=O)C2(CCN(CCO)C2)c2ccccc21 (stereo not given),12.03%,-2.098%,10.56%,-,-3.168%
COc1cc(CNC(C)Cn2cccn2)cc(OC)c1OC (stereo not given),16.44%,-,4.505%,-,-
CC(C)c1cc(NC(=O)c2ccncc2)[nH]n1,8.696%,64.12%,-2.631%,16.87%,-9.457%
[H][C@]12CCN[C@@]1([H])CN(C(=O)CCc1ccccc1)C2,-,-15.5%,-,-15.31%,-10.48%
Cc1cc2c(cc1CNC(Cc1cccs1)c1nccs1)OCO2 (stereo not given),13.04%,-,-4.093%,-,-
COc1ccccc1CNC(=O)C1=NN(c2ccc(C)cc2)C(=O)CN1,30.19%,57.58%,3.177%,-54.33%,61.91%
Cn1nnc2c1CCN(C(C(=O)N1CCCCC1)c1ccccc1)C2 (stereo not given),8.824%,-6.052%,-2.298%,-25.65%,-0.3464%
c1cnc(NC2COC3(CCN(Cc4ccoc4)CC3)C2)nc1 (stereo not given),17.28%,-,-1.402%,-,-
COC(=O)CCSc1nncn1-c1ccc(OC)nc1,16.96%,17.56%,5.461%,5.511%,20.22%
Cc1cnc(C(=O)N2CC[C@H]3C[C@@H](c4nc(C)cs4)O[C@@H]3C2)cn1,16.81%,-,6.352%,-,-
CCN1CC2(CC1=O)CN(Cc1ccco1)CCN(C(=O)C(C)C)C2 (stereo not given),12.82%,-,-12.02%,-,-
OC(COc1ccccc1Br)COC1CCOCC1 (stereo not given),21.52%,9.716%,3.358%,-11.62%,23.08%
Cc1c(C(=O)N(CCN(C)C)Cc2ccccn2)oc2ccccc12,4.301%,-4.964%,-9.104%,-20.46%,-18.05%
COCC(Nc1ncnc2c1CCNCC2)c1ccccn1 (stereo not given),20.51%,-8.927%,-19.3%,-3.41%,16.96% and 9.821%
Cc1nn2cccnc2c1C(=O)N1CCCC(Nc2ccccc2)C1 (stereo not given),12.16%,1.471%,-2.838%,-16.07%,12.85%
CN1[C@@H](C(=O)NCC2CC2)C[C@@H]2CN(Cc3ccsc3)C[C@@H]21,11.93%,-,8.125%,-,-
CO[C@H]1CCN(S(=O)(=O)c2cccnc2)[C@@H]2CN(CC3CC3)C[C@H]12,24%,-,-2.79%,-,-
O=c1[nH]c2ccc(S(=O)(=O)N(CCO)Cc3ccncc3)cc2[nH]1,9.79%,7.398%,-14.1%,-5.695%,22.65%
c1cnc(N2CCO[C@H]3CN(CC4CCCC4)C[C@H]32)cn1,9.91%,-,-20.75%,-,-
CNC(=O)C1(C)CN(c2nnc(C)c3ccccc23)CCO1 (stereo not given),17.14%,6.1%,-14.03%,-15.92%,-5.575%
CC(Cc1c(F)cccc1F)NC(=O)Nc1cnn(CC(N)=O)c1 (stereo not given),18.92%,5.343%,13.57%,0.6744%,-15.84%
CC(C)C(C)NC(=O)Nc1cccc2c1CCN(S(C)(=O)=O)C2 (stereo not given),8.036%,-1.628%,5.082%,-31.54%,7.244%
CC(C)c1sc(Cl)nc1C(=O)N1CCN(Cc2ccccc2)CC1,20%,-17.8%,-16.56%,-23.02%,-14.48%
CC[C@H]1CN2CC[C@H]1C[C@@H]2CNC(=O)Nc1ccccc1,27.78%,-,-6.037%,-,-
CC(C)(C)NC(=O)CCn1ncc2c(Cl)cccc21,12.07%,0.8754%,-3.091%,1.363%,37.8%
c1coc(CN2CCOC3(COCCN(Cc4ccncc4)C3)C2)c1 (stereo not given),13.51%,-,-4.372%,-,-
CCn1nc(C(=O)N2CCCC(n3cncn3)C2)ccc1=O (stereo not given),13.33%,3.367%,2.245%,1.531%,24.44%
O=C(C1CCOCC1)N1CCc2ncc(CN3CCOCC3)n2CC1.O=C(O)C(F)(F)F,-,-27.77%,-,-405.3%,-11.62%
Cn1nnc2c1C(COCC1CC1)CN(C(=O)C1=CCCC1)C2 (stereo not given),18%,-33.05%,-7.753%,-53.49%,24.37%
CCc1cc(=O)[nH]c(-c2ccc(NC(CO)CC(C)C)nc2)n1 (stereo not given),6.667%,-11.23%,5.316%,-11.49%,-10.92%
O=C(O)C(F)(F)F.[H][C@@]12CCN(CC(=O)NC)C[C@]1([H])CN(C(=O)c1ccoc1)C2,-,16.04%,-,-45.09%,11.36%
COC(=O)N1CCC2(CC1)CC(c1ccccc1)CN(C)C2 (stereo not given),8.333%,-5.922%,-7.032%,-18.72%,-5.693%
O=C(NCCCN1CCCC1)c1n[nH]c(=O)c2ccccc12,13.7%,-0.1059%,-3.223%,8.396%,8.321%
CCOCc1cncc2c1CCN(S(=O)(=O)c1cccc(C)c1)C2,12.82%,-12.72%,-1.243%,-,17.96%
CN1CC[C@H](N(C)Cc2ccccc2)C[C@H](O)C1,4.124%,-2.84%,-8.097%,-4.232%,20.46%
CC(C)(C)Nc1c(C2CCCN(C(=O)C3CC3)C2)nc2ccccn12 (stereo not given),-2.817%,-,-9.404%,-,-
COc1ccccc1OCC(=O)NS(=O)(=O)c1ccc(Cl)s1,-5.128%,6.177%,-18.35%,-,4.808%
CCCN1C[C@H]2CC[C@@H]1CN(Cc1cccc(-n3cccn3)c1)C2,14.17%,-,-4.78%,-,-
CC(C)CC(NC(=O)c1cnn(C)c1)C(=O)Nc1cc[nH]n1 (stereo not given),16.44%,5.543%,-1.723%,12.09%,10.84%

Repeated from the top, 4 entries:

| SMILES | LiHisRS | Toxoplasma | ClpP1P2 | T. brucei | Leishmania in macrophages |
|---|---|---|---|---|---|
| `Cc1cc(NCc2cc3n(n2)CCCN(C(=O)N(C)C)C3)ncn1` | 7.619% | -7.169% | -7.225% | -5.462% | -28.03% |
| `COCCN1CCOCC12CCN(C(=O)c1ccoc1)CC2.O=C(O)C(F)(F)F` | - | -9.706% | - | 28.67% | 8.798% |
| `CN1C(=O)C2(CCN(CCO)C2)c2ccccc21` (stereo not given) | 12.03% | -2.098% | 10.56% | - | -3.168% |
| `COc1cc(CNC(C)Cn2cccn2)cc(OC)c1OC` (stereo not given) | 16.44% | - | 4.505% | - | - |

Measurements from “University of Dundee, Small-Polar-MMV Screening Library” (2021), ChEMBL document CHEMBL3988442.